No constants are given. Whether binding was seen depends on the method and setting. For some of these results: In cells and extracts the contact can be indirect. Some binding calls cover weakened binding; strength is not graded here. Blank lines part the entries; values can stand above or below the substance they belong to.
Key:
Flag-BCLAF1 = Flag-BCLAF1 (UniProt Q9NYF8); experiment: co-IP; HEK-293T cells transfected 24 h with the tagged constructs; anti-Flag M2 agarose beads at 4 °C overnight, washed three times with BC100 buffer (20 mM Tris-Cl pH 7.9, 100 mM NaCl, 0.2 mM EDTA, 20% glycerol) with 0.2% Triton X-100; Western blot
[1] = molecular target: BCLAF1 (tag not stated for the experiment) (UniProt Q9NYF8); experiment: co-IP; BCLAF1 with full-length SPOP and three deletion mutants (Supplemental Fig. 2c); cells and tags not stated
Flag-PD-L1 [2] = molecular target: Flag-PD-L1 (UniProt Q9NZQ7); experiment: co-IP; HEK-293T cells treated with MG-132 (20 μM) for 8 h before lysis; SPOP with PD-L1, with or without BCLAF1 co-expressed
Flag-PD-L1 [3] = molecular target: Flag-PD-L1 (UniProt Q9NZQ7); experiment: co-IP; Flag-PD-L1 immunoprecipitates (Supplemental Fig. 8d, e); BCLAF1 upregulated; SPOP knocked down or overexpressed; cells not given
[4] = molecular target: endogenous BCLAF1 (SK-Hep1 cells) (human (endogenous in SK-Hep1)) (UniProt Q9NYF8); experiment: co-IP; cell extracts of SK-Hep1 cells, IgG or anti-BCLAF1 antibody; endogenous proteins; Western blot
[5] = molecular target: endogenous BCLAF1 (SK-Hep1 cells) (human (endogenous in SK-Hep1)) (UniProt Q9NYF8); experiment: proximity ligation; fixed and permeabilised SK-Hep1 cells; anti-BCLAF1 and anti-SPOP primary antibodies, Duolink in situ Red kit; control with BCLAF1 primary antibody only
[6] = molecular target: recombinant SPOP of the GST pull-down (UniProt O43791); experiment: pull-down; GST fusion proteins on glutathione-sepharose beads incubated 2 h with His-tagged recombinant protein; 20 mM Tris-HCl pH 7.5, 150 mM NaCl, 0.1% NP-40, 1 mM DTT, 10% glycerol, 1 mM EDTA, 2.5 mM MgCl2; Western blot; both purified
Flag-SPOP = Flag-SPOP (UniProt O43791); experiment: co-IP; HEK-293T cells transfected 24 h with the tagged constructs; anti-Flag M2 agarose beads at 4 °C overnight, washed three times with BC100 buffer (20 mM Tris-Cl pH 7.9, 100 mM NaCl, 0.2 mM EDTA, 20% glycerol) with 0.2% Triton X-100; Western blot

Protein sequences, listed by entry. Tags and fused reporters are not part of them. Residues count along the entry.
UniProt Q9NYF8: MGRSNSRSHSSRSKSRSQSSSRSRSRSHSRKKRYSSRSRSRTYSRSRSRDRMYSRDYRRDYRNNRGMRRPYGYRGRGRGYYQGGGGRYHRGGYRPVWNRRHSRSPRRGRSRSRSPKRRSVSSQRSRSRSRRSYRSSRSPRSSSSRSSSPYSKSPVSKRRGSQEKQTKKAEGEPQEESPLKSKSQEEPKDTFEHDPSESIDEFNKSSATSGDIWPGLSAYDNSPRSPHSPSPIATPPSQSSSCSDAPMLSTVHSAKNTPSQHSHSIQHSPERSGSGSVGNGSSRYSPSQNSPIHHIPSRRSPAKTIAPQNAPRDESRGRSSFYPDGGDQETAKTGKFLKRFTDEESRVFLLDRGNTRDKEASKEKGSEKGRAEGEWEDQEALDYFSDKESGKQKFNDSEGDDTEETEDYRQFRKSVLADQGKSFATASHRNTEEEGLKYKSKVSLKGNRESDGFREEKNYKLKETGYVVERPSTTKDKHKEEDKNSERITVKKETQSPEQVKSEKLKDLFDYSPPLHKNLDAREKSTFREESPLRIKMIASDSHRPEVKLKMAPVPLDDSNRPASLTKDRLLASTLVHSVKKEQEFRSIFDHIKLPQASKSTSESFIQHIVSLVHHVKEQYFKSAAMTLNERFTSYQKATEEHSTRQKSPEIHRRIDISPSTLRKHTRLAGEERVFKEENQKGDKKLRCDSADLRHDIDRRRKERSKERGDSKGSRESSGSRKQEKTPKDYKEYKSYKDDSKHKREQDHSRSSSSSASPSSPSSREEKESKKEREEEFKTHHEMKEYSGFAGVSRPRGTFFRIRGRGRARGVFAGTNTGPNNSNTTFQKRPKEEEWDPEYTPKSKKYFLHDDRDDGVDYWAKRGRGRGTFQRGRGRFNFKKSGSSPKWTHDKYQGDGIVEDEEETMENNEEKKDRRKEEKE
UniProt Q9NZQ7, residues 19-290: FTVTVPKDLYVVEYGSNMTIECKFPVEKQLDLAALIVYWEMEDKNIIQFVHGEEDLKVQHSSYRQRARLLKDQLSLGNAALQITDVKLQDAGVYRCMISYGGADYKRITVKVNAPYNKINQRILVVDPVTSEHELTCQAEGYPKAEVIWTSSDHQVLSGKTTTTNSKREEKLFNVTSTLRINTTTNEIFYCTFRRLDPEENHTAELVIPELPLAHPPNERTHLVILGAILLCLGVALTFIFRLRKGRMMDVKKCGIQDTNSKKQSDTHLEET
UniProt O43791: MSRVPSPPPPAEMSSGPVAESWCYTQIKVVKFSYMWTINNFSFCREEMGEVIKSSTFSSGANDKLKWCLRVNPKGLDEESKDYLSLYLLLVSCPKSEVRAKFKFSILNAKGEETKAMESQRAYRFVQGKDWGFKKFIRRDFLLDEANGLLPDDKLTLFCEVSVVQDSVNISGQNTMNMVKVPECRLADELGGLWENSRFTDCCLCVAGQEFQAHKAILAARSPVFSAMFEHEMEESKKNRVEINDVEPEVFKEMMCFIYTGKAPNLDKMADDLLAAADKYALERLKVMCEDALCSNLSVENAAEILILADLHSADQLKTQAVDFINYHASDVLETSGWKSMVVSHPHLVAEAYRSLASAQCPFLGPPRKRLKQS

binding (Flag-BCLAF1): binds
Substance: endogenous SPOP (HEK-293T cells) (from UniProt O43791 1-374)

binding (Flag-BCLAF1): binds
Substance: Myc-SPOP (from UniProt O43791 1-374)

binding [1]: binds
binding (Flag-PD-L1 [2]): binds
binding (Flag-PD-L1 [3]): binds
Substance: full-length SPOP (SPOP-WT) (from UniProt O43791 1-374)

binding [4]: binds
binding [5]: binds
Substance: endogenous SPOP (SK-Hep1 cells) (from UniProt O43791 1-374)

binding [6]: binds
Substance: recombinant BCLAF1 (wild type) of the GST pull-down (from UniProt Q9NYF8 1-920)

binding (Flag-PD-L1 [3]): binds
Substance: BCLAF1 (tag not stated for the experiment) (from UniProt Q9NYF8 1-920)

binding (Flag-SPOP): binds
Substance: Myc-BCLAF1 (from UniProt Q9NYF8 1-920)

— PMC10858942
